The exact form of at least one protein or probe is not confirmed. For part of these data: Negatives hold for the conditions tested.
Columns and labels:
[1] = tested on: LXRα/RXRα heterodimer; assay: EMSA; settings: protein translated in vitro
[2] = tested on: LXRα/RXRα heterodimer; assay: competition with a labelled probe; settings: protein translated in vitro

Sequence: ATAAGGTCAAGTTTGCTCACTC (double strand) [mEst DR-4]
- binding result [1]: binds

Sequence: ATAAAATCTAGTTTGCTCACTC (double strand) [mutant Est DR-4]
- binding result ([2]; unlabeled mutant does not compete Est/DR-4 binding, variant of mEst DR-4): no binding

Sequence: CTGGGGTTACTGGCGGTCACTG (double strand) [Srebp-1c DR-4 LXRE]
- binding result ([2]; excess unlabeled Srebp-1c/DR-4 efficiently competes Est/DR-4 binding): binds
